In PubChem BioAssay (EPA / NIEHS):
The inconclusive results got no clear call from the source; some entries with a clear call stand among them for comparison. Potencies of inconclusive entries are doubtful fits and often do not repeat. Active and inactive are the calls of the source. Rule for the calls: active = hit-call score of the fitted dose curve at least 0.9, where 1 is the maximum; inconclusive = response in the unintended direction; inactive = score below 0.9.

The chains behind the UniProt entries cited, without tags or fusion partners.
UniProt P21728, whole entry, looked up: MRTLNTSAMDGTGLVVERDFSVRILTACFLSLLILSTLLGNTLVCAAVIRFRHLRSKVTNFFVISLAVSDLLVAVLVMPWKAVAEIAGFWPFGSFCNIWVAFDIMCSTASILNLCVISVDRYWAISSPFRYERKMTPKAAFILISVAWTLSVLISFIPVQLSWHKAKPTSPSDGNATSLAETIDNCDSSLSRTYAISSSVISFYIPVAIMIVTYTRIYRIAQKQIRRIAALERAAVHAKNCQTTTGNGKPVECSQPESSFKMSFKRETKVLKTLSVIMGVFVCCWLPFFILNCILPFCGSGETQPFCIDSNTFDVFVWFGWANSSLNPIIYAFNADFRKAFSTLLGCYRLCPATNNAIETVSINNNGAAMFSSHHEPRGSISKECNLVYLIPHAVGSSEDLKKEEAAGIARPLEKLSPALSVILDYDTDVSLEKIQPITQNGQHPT

Molecular target: D(1A) dopamine receptor (Homo sapiens) (UniProt P21728)
Assay: NVS_GPCR_hDRD1: NovaScreen (NVS) G Protein-Coupled Receptor Assay for human Dopamine Receptor D1 (DRD1) (AID 2283269)
Experimental: NVS_GPCR_hDRD1 is a biochemical, single-readout assay that uses extracted gene-proteins from HEK293 in a cell-free assay. Measurements were taken 1 hour after chemical dosing in a 96-well plate.NVS_GPCR_hDRD1 is one of one assay component(s) measured or calculated from the NVS_GPCR_hDRD1 assay. It is designed to make measurements of radioligand binding, a form of binding reporter, as detected with scintillation counting signals by Filter-based radiodetection technology.Data from the assay component NVS_GPCR_hDRD1 was analyzed into 1 assay endpoint. This assay endpoint, NVS_GPCR_hDRD1, was analyzed in the positive analysis fitting direction relative to DMSO as the negative control and baseline of activity. Using a type of binding reporter, loss-of-signal activity can be used to understand changes in the binding as they relate to the gene DRD1. Furthermore, this assay endpoint can be referred to as a primary readout, because the performed assay has only produced 1 assay endpoint. To generalize the intended target to other relatable targets, this assay endpoint is annotated to the gpcr intended target family, where the subfamily is rhodopsin-like receptor.
Binding assays used specific radioligands (tritiated, iodinated) with non-radioactive competitive displacement ligands in agonist or antagonist protocols (as indicated) and various reference compounds and inhibitors to titrate specific binding to receptors and transporters. Most enzyme assays (CYPs, kinases, phosphatases, proteases, HDACs) used recombinant protein and specific substrates (fluorescence mostly, some colorimetric and radioactive) and inhibitors, followed by a biochemical separation of substrate and product. All assays for the biochemical HTS were initially run in duplicate at a single concentration (10 uM for CYP450 assays and 25 uM for all others). […] Each assay was run with positive and negative controls, and concurrent controls on every plate. The follow-up (secondary) screen tested active chemical-pairs in concentration series, as well as a few additional assays not tested in the primary screen, some selected negative inactives, and several cases re-run in the concentration series for confirmatory purposes.

SMILES | AC50 | outcome
CCOC(=O)C(C)(C)Oc1ccc(Cl)cc1 | inconclusive: 25 µM | –
c1ccc2c(c1)-c1ccc3ccc4cccc5cc-2c1c3c45 | – | inactive
CCN(CC)c1cccc(C)c1 | inconclusive: 25 µM | –
CCCCCCCCSCc1cc(C)c(O)c(CSCCCCCCCC)c1 | inconclusive: 0.15 µM | –
CC(C)(C)c1ccc(OC2CCCCC2O)cc1 (configuration not stated) | inconclusive: 6.61 µM | –
Cc1ccc(O)cn1 | inconclusive: 0.466 µM | –
CC1(C)C(=O)N(CO)C(=O)N1CO | inconclusive: 0.0362 µM | –
C=CC(=O)OCC(Br)CBr (configuration not stated) | – | inactive
CC(CO)c1ccccc1 (configuration not stated) | inconclusive: 5.98 µM | –
CC(C=O)c1ccccc1 (configuration not stated) | inconclusive: 0.172 µM | –
Nc1ccc(Cl)c([N+](=O)[O-])c1 | inconclusive: 5.88 µM | –
Cc1cc(=O)[nH]c(=O)[nH]1 | inconclusive: 25 µM | –
CO[Si](OC)(c1ccccc1)c1ccccc1 | active: 45.6 µM | –
O=C(c1ccccc1)c1ccc(Cl)cc1 | inconclusive: 5.9 µM | –
C=CC(C)C#N (configuration not stated) | inconclusive: 6.05 µM | –
COC(=O)C=Cc1ccccc1 | – | inactive
Oc1ccc2c(c1)OC[C@@H](N1CCC(O)(c3ccc(F)cc3)CC1)[C@H]2O | – | inactive

Random excerpt: 2 entries already listed, in no set order.
SMILES | AC50 | outcome
CO[Si](OC)(c1ccccc1)c1ccccc1 | active: 45.6 µM | –
Nc1ccc(Cl)c([N+](=O)[O-])c1 | inconclusive: 5.88 µM | –
